This note sets out measurements from patent US20230227568A1 (Pieris, published 2023).

Chains of the proteins cited; added tags and fusions are not shown.
UniProt A9YYE7, entry or part of it limits assumed: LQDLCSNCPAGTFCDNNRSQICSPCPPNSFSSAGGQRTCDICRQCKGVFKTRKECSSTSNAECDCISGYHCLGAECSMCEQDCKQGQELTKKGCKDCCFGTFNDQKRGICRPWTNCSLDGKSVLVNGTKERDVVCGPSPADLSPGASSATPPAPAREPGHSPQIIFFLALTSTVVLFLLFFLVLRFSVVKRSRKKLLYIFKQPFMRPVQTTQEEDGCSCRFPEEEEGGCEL

One assay deals with T1, hu4-1BB-Fc (R&D Systems) (human, UniProt Q07011 24-186).
T1 construct: Bought; also called human 4-1BB; not shown: human IgG Fc of the bought fusion
T1 sequence (looked up): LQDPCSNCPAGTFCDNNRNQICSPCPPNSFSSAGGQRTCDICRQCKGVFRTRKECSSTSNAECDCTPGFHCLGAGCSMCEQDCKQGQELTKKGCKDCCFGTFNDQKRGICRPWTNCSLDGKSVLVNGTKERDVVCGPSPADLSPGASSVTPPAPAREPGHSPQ
As to the kind of experiment: SPR (Biacore 8K), hu4-1BB-Fc captured by anti-human IgG Fc; apparent value, 1:1 fit. On the procedure: The anti-human IgG Fc antibody (GE Healthcare) was immobilized on a CM5 sensor chip using standard amine chemistry: the carboxyl groups on the chip were activated using 1-ethyl-3-(3-dimethylaminopropyl)-carbodiimide (EDC) and N-hydroxysuccinimide (NHS). Subsequently, anti-human IgG Fc antibody solution (GE Healthcare) at a concentration of 25 μg/mL in 10 mM sodium acetate (pH 5.0) was applied at a flow rate of 5 μL/min until an immobilization level of 4000-10000 resonance units (RU) was achieved. Residual non-reacted NHS-esters were blocked by passing a solution of 1 M ethanolamine across the surface. The reference channel was treated in an analogous manner. Subsequently, hu4-1BB-Fc (R&D Systems) at 0.3 μg/mL was captured by the anti-human IgG-Fc antibody at the chip surface for 180 s at a flow rate of 10 μL/min.
The binding assay was carried out with a contact time of 180 s, a dissociation time of 1200 s or 3000 s and a flow rate of 30 μL/min. All measurements were performed at 25° C. Lipocalin mutein SEQ ID NO: 64 as included in the multimeric proteins was also tested as […]. […] Prior to the protein measurements, three startup cycles were performed for conditioning purposes. Data were evaluated with Biacore Evaluation software. Double referencing was used and the 1:1 binding model was used to fit the raw data.

Assay [1] addresses T2, recombinant hu4-1BB-His (human 4-1BB with a C-terminal polyhistidine tag, R&D Systems) (human, UniProt Q07011 24-186).
T2 construct: Bought; not shown: C-terminal polyhistidine tag
T2 sequence (looked up): T1 sequence (looked up)
As to the kind of experiment: ELISA, hu4-1BB-His coated, detection anti-NGAL-HRP. How it is done:
Recombinant hu4-1BB-His (human 4-1BB with a C-terminal polyhistidine tag, R&D Systems) at the concentration of 1 μg/mL in PBS was coated overnight on microtiter plates at 4° C. After washing with PBS-0.05% T (PBS supplemented with 0.05% (v/v) Tween 20), the plates were blocked with 2% BSA (w/v) in PBS-0.1% T (PBS supplemented with 0.1% (v/v) Tween 20) for 1 h at room temperature. After washing with 100 μL PBS-0.05% T five times, exemplary multimeric proteins (SEQ ID NOs: 38-44 and 46-53) or 4-1BB-specific lipocalin mutein as included in the multimeric protein (SEQ ID NO: 64) at different concentrations, ranging from 100 to 0.002 nM, were added to the wells and incubated for 1 h at room temperature, followed by another wash step. Bound molecules under study were detected by incubation with 1:1000 diluted anti-NGAL-HRP in PBS-0.1% T-2% BSA. After an additional wash step, fluorogenic HRP substrate (QuantaBlu, Thermo) was added to each well and the fluorescence intensity was detected using a fluorescence microplate reader.
The results of exemplary experiments are depicted in FIG. 2, together with the fit curves resulting from a 1:1 binding sigmoidal fit, where the EC₅₀ value and the maximum signal were free parameters, and the slope was fixed to one. The observed EC₅₀ values toward the hu4-1BB of all tested multimeric proteins were in the sub nanomolar range.
On the technique in general: In an ELISA, binding on a coated surface is turned into a signal by an enzyme label.

In a further assay the target is T3, human 4-1BB on cells (human, UniProt Q07011 24-255).
T3 construct: whole, on cells; Stably transfected CHO cells (flow cytometry) and bought Jurkat reporter cells (bioassay); also called Flp-In-CHO::hu4-1BB; human 4-1BB-expressing CHO cells
Kind of assay: flow cytometry, Flp-In-CHO::hu4-1BB cells. On the procedure: (§1) CHO cells were stably transfected with human 4-1BB, cynomolgus 4-1BB, or a mock control using the Flp-In system (Life Technologies) according to the manufacturer's instructions. Transfected CHO cells were maintained in Ham's F12 medium (Life Technologies) supplemented with 10% Fetal Calf Serum (Biochrom) and 500 μg/ml Hygromycin B (Roth). Cells were cultured in cell culture flasks according to manufacturer's instruction (37° C., 5% CO₂ atmosphere).
(§2) 5×10⁴ cells per well were incubated for 1 h in ice-cold PBS containing 5% fetal calf serum (PBS-FCS). A dilution series of the tested multimeric proteins (SEQ ID NOs: 38-44 and 46-55), the 4-1BB-targeting lipocalin mutein as included in the multimeric proteins (SEQ ID NO: 64) or the GPC3-targeting lipocalin SEQ ID NO: 90 were added to the cells and incubated for 1 h on ice. Cells were washed twice with PBS and then incubated with a rabbit anti-NGAL or a goat anti-human IgG labeled with fluorescent dye Alexa 488 for 30 min on ice. Human IgG4 isotype (SEQ ID NOs: 29 and 30) and lipocalin mutein SEQ ID NO: 8 were tested as a negative control. Cells were subsequently washed and analyzed using iQue Flow cytometer (Intellicyte Screener). Mean geometric fluorescent signals were plotted and fitted with Graphpad software using nonlinear regression (shared bottom, four parameters, variable slope).
For orientation: In flow cytometry, cells or beads pass a laser one at a time.

Assay [2] has as its target T4, cynomolgus 4-1BB on CHO cells (cynomolgus, UniProt A9YYE7 24-254).
T4 construct: also called Flp-In-CHO::cyno4-1BB; cynomolgus 4-1BB-expressing CHO cells
As to the kind of experiment: flow cytometry, Flp-In-CHO::cyno4-1BB cells. On the procedure:
as §1, §2

By koff is commonly meant the rate constant with which the complex falls apart. A word on the kon: it is the second-order rate constant of association. What is called EC50 is the midpoint of the concentration-response curve.

B1: multimeric protein SEQ ID NO: 46 (designed binder)
chain: QDSTSDLIPAPPLSKVPLQQNFQDNQFHGKWYVVGQAGNIRLREDKDPIKMMATIYELKEDKSYDVTMVKFDDKKCMYDIWTFVPGSQPGEFTLGKIKSFPGHTSSLVRVVSTNYNQHAMVFFKFVFQNREEFYITLYGRTKELTSELKENFIRFSKSLGLPENHIVFPVPIDQCIDGGGGGSGGGGSGGGGSRLKQIEDKLEEILSKLYHIENELARIKKLLGERGGSGGAPEQKLISEEDLGSHHHHHHHHHH
With B1, in the assay with hu4-1BB-Fc (R&D Systems), the Kd stood at 0.24 nM. In addition, the koff in the assay with hu4-1BB-Fc (R&D Systems) came out at 3.18e-05 s⁻¹. Also, in the assay with hu4-1BB-Fc (R&D Systems), the kon turned out to be 133000 M⁻¹ s⁻¹. In addition, the figures for the EC50 (in assay [1]; with human 4-1BB on cells; in assay [2]) were 0.16 nM, 2.89 nM and 4.46 nM, respectively.
